PubChem BioAssay AID1259425 | University of Nebraska Medical Center | 2018

Assay: 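Seek colon cancer weak points whose silencing resembles KSR1 loss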 (primary screen)
Cell system: HCT116 human colon cancer cells
Reagent: siRNA pool against human genes, 50 nM siRNA
Measured: 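After 50 nM siRNA pool, branched-DNA assay measures six marker transcripts per well, minus blank, normalised to the geometric mean of two housekeeping transcripts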
Direction: BNIP3L mRNA: higher = more BNIP3L transcript after knockdown; NDRG1 mRNA: higher = more NDRG1 transcript after knockdown
Here is an unselected part of about 14,000 reagents tested. Some reagents were tested in more than one well and are listed for each. Not all columns of the deposit are shown. Not given: the time to read-out.

After knock-down of RPLP0 (ribosomal protein lateral stalk subunit P0), the record shows BNIP3L mRNA, set 1 = 0.102; NDRG1 mRNA, set 1 = 0.278.
For TAF7 (TATA-box binding protein associated factor 7) the deposit lists BNIP3L mRNA, set 1 = 0.138; NDRG1 mRNA, set 1 = 0.197.
Silencing of JUN (Jun proto-oncogene, AP-1 transcription factor subunit) gave: BNIP3L mRNA, set 1 = 0.114; NDRG1 mRNA, set 1 = 0.0571.
With knock-down of AMPD3 (adenosine monophosphate deaminase 3) the results were BNIP3L mRNA, set 1 = 0.1; NDRG1 mRNA, set 1 = 0.191.
LRIF1 (ligand dependent nuclear receptor interacting factor 1) showed BNIP3L mRNA, set 1 = 0.139; NDRG1 mRNA, set 1 = 0.173.
For H2AZ1 (H2A.Z variant histone 1) the deposit lists BNIP3L mRNA, set 1 = 0.117; NDRG1 mRNA, set 1 = 0.188.
After knock-down of ADAM28 (ADAM metallopeptidase domain 28) the results were BNIP3L mRNA, set 1 = 0.129; NDRG1 mRNA, set 1 = 0.182.
SH3BP4 (SH3 domain binding protein 4) scored BNIP3L mRNA, set 1 = 0.0909; NDRG1 mRNA, set 1 = 0.252.
RRAS2 (RAS related 2) gave BNIP3L mRNA, set 1 = 0.138; NDRG1 mRNA, set 1 = 0.279.
For PSMD13 (proteasome 26S subunit, non-ATPase 13), the entry reads BNIP3L mRNA, set 1 = 0.09; NDRG1 mRNA, set 1 = 0.808.
Silencing of AP3D1 (adaptor related protein complex 3 subunit delta 1) resulted in: BNIP3L mRNA, set 1 = 0.115; NDRG1 mRNA, set 1 = 0.112.
After knock-down of AQP9 (aquaporin 9), the screen gave BNIP3L mRNA, set 1 = 0.156; NDRG1 mRNA, set 1 = 0.241.
Silencing of WSB2 (WD repeat and SOCS box containing 2) resulted in: BNIP3L mRNA, set 1 = 0.0703; NDRG1 mRNA, set 1 = 0.116.
GRB2 (growth factor receptor bound protein 2) showed BNIP3L mRNA, set 1 = 0.0655; NDRG1 mRNA, set 1 = 0.169.
After knock-down of NHP2 (NHP2 ribonucleoprotein), the screen gave BNIP3L mRNA, set 1 = 1.26; NDRG1 mRNA, set 1 = 3.25.
Against VAMP4 (vesicle associated membrane protein 4), the entry reads BNIP3L mRNA, set 1 = 0.231; NDRG1 mRNA, set 1 = 0.362.
Against TFDP3 (transcription factor Dp family member 3) the deposit lists BNIP3L mRNA, set 1 = 0.0759; NDRG1 mRNA, set 1 = 0.12.
Knock-down of MASTL (microtubule associated serine/threonine kinase like) gave: BNIP3L mRNA, set 1 = 0.104; NDRG1 mRNA, set 1 = 0.156.
SMAD1 (SMAD family member 1) scored BNIP3L mRNA, set 1 = 0.249; NDRG1 mRNA, set 1 = 0.233.
Depletion of SMAD1 (SMAD family member 1) came out at: BNIP3L mRNA, set 1 = 0.234; NDRG1 mRNA, set 1 = 0.205.
